PubChem BioAssay AID1259314, Drosophila RNAi Screening Center – 2017
Assay: 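Genes whose knock-down alters cell survival under toxic manganese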 (primary screen). System: Drosophila S2R+ cells. Reagents: long dsRNA against Drosophila genes. Timing: 5 days (4 days knock-down, then 1 day metal exposure). Treatment: manganese chloride added to 15 mM for 24 hours. Measured: 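Cellular ATP measured by luciferase light, scaled to the plate mean, averaged across replicates and z-scored over plates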. Reading the numbers: mean ATP z-score: higher = more ATP than the plate average, more viable cells under manganese. Call rule: 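a mean ATP z-score past 1.5 in either direction is called active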. Calls: active = strong ATP change, up or down; inactive = no strong ATP change.
The deposit covers about 3,100 reagents; shown is an unselected part. Over the whole deposit, 289 (9.3%) were called active. 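Active includes both higher and lower ATP than plate average; check the z-score sign for direction.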 A number with no mark means an inactive call. A plus sign joins genes that one reagent is predicted to hit. No sequences are given here. Not stated in the record: the amount of reagent.

mean ATP z-score, by gene and reagent
Coq4 + frc: SID104190173 -0.832
ND-MWFE: SID104186156 -0.0791
PIG-Q: SID104198930 -0.583; SID104217010 -0.344
nAChRalpha2: SID104196801 -0.673; SID104203226 -0.403
GC2: SID104194268 -0.302; SID104205914 -0.749
CG14647: SID104201949 -1.13; SID104217168 0.193
CG42818: SID104181755 0.117
Der-1: SID104180093 -0.369; SID104217130 -0.895
ldd: SID104200350 -0.0365; SID104202084 1.81 (active)
slif: SID104205982 2.63 (active); SID104217366 1.28
Gr10b: SID104199269 -0.889; SID104207246 1.14
Fs(2)Ket: SID104183120 0.252; SID104202737 -2.69 (active)
Tom20: SID104190691 -0.31
xit: SID104198156 -0.247; SID104217299 -0.0791
hid: SID104204007 0.586; SID104217292 -0.571
ste24a: SID104187106 -0.246; SID104205035 0.0936
AstC-R2: SID104202750 -0.814; SID104217044 0.0744
Rh4: SID104205925 -0.641
botv: SID104185741 -1.54 (active); SID104206578 3.42 (active)
CG10051: SID104185751 -1.68 (active)
anchor: SID104190653 0.278
VGAT: SID104186952 -0.405
CG14440: SID104202365 0.0422; SID104204350 1.13
CG33181: SID104197763 0.152; SID104208001 0.413
put: SID104196831 0; SID104214187 0.385; SID104214188 0.198
Ten-a: SID104199656 -0.257; SID104200082 -0.094
CG31321: SID104192820 -0.442; SID104205879 -0.258
rdo: SID104182244 0.911; SID104204117 -0.494
ORMDL: SID104206322 -0.325
Strn-Mlck: SID104184824 0.117; SID104187263 -1.1; SID104214599 0.56
ATP7: SID104199611 -0.0376; SID104217035 -0.898
Gr32a: SID104182192 -0.583; SID104217025 0.452

Quoted from the entries so far (16 entries):
mean ATP z-score, by gene and reagent
Coq4 + frc: SID104190173 -0.832
ND-MWFE: SID104186156 -0.0791
PIG-Q: SID104198930 -0.583; SID104217010 -0.344
nAChRalpha2: SID104196801 -0.673; SID104203226 -0.403
GC2: SID104194268 -0.302; SID104205914 -0.749
CG14647: SID104201949 -1.13; SID104217168 0.193
CG42818: SID104181755 0.117
Der-1: SID104180093 -0.369; SID104217130 -0.895
ldd: SID104200350 -0.0365; SID104202084 1.81 (active)
slif: SID104205982 2.63 (active)

Further results follow:
mean ATP z-score, by gene and reagent
Hk: SID104203531 2.16 (active); SID104216704 0.141
PGRP-LB: SID104194718 -0.426; SID104217388 6.03 (active)
CG42322: SID104194904 -0.0992; SID104194905 0.772
CG8028: SID104199867 -0.708
CG14857: SID104194773 0.0105; SID104217211 0.668
wls: SID104190397 -0.651; SID104207857 -0.584
Nhe1: SID104180554 -0.465; SID104217336 -0.57
PGAP3: SID104184781 0.616; SID104217125 0.00717
Lar: SID104181499 0.322; SID104183153 4.01 (active); SID104214570 -0.333
tadr: SID104182969 -0.801; SID104217165 -0.369
CG13014: SID104199325 1.07; SID104216574 0.27
rg: SID104197518 0.211; SID104197841 1.07; SID104207688 -0.441; SID104214189 0.335; SID104214190 -0.636
Vamp7: SID104186391 0.222
eag: SID104198859 -0.0959; SID104200120 -0.139; SID104206839 -0.631
eloF: SID104194954 0.0953; SID104203952 0.738
crq: SID104180602 0.488
GluRIIB: SID104183127 0.0565; SID104217143 0.631
CG6052: SID104190366 -0.933
NKCC: SID104191932 1.94 (active); SID104192103 -1.2
CG8195: SID104186895 -0.966
Grik: SID104195638 -0.666; SID104195639 0.781; SID104204611 1.42
CG33296: SID104180790 0.102; SID104202912 1.52 (active)
CLS: SID104195434 0.705; SID104206833 -0.236
amrt: SID104199170 0.191; SID104205487 -0.44
emb: SID104183320 5.62 (active)
na: SID104199431 0.191; SID104208372 -0.0534
pippin: SID104184281 -0.739; SID104217275 1.43
